According to the supplement of paper PMC12823440, “Inhibitors supercharge kinase turnover through native proteolytic circuits” (Nature, 2025):
This is one part of the list. The calls rarely recur for the same compound in another form.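 Kinases, fused to nanoluciferase, were expressed in K562 cells; luminescence was measured every 4 h from 2 to 18 h as percent of control (DMSO = 100%, positive control = 0%). A time point is decreased if signal falls significantly (2 sigma). Hits were called by the authors by a rule that is not shown; the count of time points alone does not decide it.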

Amino acid sequences for entries named in this document (tags omitted). A change or cut given only in a name is not applied to a line headed by its entry.
UniProt P00519, whole entry: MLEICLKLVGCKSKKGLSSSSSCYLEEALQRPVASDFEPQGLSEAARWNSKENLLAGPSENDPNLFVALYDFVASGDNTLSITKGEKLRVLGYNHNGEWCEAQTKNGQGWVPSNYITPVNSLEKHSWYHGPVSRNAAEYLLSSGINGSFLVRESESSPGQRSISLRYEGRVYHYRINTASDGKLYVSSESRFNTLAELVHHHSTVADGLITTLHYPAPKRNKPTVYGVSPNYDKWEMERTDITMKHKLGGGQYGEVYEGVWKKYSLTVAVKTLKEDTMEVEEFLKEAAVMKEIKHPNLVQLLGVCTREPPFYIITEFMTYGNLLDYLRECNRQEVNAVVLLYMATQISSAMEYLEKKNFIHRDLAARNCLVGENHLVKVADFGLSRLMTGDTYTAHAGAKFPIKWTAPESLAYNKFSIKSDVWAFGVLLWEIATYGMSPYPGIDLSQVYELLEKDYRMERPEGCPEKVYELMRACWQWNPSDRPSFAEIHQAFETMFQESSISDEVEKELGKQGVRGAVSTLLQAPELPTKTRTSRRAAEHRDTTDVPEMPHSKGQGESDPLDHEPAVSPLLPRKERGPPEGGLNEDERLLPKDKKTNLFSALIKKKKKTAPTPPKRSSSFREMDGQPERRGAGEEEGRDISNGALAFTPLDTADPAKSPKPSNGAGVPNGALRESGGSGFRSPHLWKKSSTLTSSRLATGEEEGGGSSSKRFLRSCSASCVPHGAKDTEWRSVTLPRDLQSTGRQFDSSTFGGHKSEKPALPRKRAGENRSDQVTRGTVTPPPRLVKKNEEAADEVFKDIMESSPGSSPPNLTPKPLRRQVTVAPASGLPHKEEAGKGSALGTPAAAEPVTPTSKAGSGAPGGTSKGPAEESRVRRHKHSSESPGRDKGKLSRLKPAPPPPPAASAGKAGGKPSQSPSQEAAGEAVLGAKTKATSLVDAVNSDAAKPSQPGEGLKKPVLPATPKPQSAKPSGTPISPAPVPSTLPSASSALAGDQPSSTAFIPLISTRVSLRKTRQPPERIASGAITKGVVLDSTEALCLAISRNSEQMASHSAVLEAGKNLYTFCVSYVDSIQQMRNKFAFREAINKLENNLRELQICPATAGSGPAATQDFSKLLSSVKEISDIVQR
UniProt P31749: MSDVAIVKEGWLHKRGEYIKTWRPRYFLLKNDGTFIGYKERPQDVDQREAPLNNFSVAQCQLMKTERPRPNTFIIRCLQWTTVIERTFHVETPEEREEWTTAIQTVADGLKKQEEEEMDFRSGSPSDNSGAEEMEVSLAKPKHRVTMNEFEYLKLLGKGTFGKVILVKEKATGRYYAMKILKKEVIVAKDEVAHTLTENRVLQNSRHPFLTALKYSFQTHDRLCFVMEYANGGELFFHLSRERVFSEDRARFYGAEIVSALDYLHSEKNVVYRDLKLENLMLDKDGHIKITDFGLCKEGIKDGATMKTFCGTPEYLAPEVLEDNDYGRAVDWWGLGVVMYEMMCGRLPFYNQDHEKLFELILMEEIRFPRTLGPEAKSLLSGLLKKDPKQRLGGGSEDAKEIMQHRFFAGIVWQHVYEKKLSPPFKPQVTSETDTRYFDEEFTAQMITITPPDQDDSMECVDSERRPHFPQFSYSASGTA
UniProt Q9UM73: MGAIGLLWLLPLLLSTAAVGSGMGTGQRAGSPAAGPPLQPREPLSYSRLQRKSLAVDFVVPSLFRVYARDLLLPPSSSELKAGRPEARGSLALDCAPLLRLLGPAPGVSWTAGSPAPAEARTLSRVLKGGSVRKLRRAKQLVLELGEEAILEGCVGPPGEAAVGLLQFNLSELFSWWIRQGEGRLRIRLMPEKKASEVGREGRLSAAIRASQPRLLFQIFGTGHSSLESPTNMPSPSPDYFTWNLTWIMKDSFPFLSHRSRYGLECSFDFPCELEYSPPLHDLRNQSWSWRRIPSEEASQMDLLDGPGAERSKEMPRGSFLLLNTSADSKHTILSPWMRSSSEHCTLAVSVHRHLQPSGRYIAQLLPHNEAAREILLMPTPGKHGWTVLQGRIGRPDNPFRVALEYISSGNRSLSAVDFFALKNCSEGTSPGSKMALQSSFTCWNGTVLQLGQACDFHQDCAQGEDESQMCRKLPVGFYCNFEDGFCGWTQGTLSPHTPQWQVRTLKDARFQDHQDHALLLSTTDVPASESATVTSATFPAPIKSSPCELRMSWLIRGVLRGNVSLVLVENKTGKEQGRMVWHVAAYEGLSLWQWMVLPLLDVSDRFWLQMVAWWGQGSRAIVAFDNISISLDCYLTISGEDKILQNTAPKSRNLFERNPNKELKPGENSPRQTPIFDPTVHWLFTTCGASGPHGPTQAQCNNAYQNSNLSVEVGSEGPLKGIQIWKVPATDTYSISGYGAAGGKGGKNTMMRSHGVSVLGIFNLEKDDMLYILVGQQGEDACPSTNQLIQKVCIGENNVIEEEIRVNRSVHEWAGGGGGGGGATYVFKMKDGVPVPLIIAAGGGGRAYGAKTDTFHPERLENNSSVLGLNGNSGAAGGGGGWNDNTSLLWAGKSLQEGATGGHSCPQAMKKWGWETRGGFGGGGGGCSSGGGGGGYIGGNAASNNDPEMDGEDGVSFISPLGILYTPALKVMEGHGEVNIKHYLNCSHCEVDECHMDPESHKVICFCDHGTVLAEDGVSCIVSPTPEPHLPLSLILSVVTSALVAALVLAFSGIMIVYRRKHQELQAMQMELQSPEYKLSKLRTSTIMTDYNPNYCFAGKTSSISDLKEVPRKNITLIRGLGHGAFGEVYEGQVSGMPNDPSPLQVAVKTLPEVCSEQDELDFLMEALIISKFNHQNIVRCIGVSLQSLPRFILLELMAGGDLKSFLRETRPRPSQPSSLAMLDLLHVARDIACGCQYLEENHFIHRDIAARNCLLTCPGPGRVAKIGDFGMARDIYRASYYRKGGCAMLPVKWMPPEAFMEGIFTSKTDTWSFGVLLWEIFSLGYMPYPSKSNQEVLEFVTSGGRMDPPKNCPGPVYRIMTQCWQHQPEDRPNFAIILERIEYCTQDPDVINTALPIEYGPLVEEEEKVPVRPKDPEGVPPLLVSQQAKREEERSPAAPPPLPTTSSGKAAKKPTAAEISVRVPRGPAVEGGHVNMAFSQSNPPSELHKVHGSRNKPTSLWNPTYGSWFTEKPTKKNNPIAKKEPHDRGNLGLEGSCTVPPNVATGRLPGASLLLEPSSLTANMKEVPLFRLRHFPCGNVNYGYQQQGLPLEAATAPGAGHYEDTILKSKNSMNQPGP
UniProt P10398: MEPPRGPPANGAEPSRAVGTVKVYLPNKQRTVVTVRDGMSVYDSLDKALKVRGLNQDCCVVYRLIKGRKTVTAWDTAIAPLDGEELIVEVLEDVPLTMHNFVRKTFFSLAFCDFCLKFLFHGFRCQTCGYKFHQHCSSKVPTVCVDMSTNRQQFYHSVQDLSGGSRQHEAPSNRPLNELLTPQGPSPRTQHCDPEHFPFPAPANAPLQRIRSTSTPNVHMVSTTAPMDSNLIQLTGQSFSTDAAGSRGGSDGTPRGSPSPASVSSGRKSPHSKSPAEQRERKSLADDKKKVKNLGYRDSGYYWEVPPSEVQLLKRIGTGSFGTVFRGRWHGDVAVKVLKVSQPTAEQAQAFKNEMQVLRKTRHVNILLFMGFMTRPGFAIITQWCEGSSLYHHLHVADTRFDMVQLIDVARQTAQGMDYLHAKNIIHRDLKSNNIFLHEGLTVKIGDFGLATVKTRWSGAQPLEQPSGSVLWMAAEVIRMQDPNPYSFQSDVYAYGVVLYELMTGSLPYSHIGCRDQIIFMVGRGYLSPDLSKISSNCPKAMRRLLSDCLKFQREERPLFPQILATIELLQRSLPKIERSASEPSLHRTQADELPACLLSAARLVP
UniProt O14965: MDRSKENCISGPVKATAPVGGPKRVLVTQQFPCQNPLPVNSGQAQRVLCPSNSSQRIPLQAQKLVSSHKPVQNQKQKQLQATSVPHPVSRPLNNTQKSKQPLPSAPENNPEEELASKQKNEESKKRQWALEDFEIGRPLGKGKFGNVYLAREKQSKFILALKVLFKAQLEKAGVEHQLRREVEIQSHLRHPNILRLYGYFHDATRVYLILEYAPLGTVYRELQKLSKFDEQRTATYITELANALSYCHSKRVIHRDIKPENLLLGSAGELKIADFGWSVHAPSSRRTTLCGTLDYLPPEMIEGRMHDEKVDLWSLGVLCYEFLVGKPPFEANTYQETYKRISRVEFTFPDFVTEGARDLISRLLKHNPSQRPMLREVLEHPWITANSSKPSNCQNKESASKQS
UniProt Q96GD4, whole entry: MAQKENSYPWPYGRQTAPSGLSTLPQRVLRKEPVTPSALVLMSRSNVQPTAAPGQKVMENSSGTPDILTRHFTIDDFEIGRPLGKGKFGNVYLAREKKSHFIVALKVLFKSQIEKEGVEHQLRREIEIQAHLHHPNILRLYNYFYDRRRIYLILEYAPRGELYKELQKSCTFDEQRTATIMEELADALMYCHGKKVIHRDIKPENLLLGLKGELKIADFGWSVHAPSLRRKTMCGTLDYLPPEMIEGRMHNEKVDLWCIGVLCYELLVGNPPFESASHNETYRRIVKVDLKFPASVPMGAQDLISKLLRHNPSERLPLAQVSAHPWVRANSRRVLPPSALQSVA
UniProt Q9UQB9: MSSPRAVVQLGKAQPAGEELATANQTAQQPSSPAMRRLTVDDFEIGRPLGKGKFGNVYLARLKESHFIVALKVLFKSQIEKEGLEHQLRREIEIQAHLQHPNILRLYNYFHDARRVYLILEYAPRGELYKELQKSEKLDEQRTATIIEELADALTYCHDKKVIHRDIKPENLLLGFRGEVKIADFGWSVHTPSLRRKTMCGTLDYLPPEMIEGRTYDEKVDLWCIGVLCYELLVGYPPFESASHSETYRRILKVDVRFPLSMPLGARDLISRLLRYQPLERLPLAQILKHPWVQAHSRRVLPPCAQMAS
UniProt P51451: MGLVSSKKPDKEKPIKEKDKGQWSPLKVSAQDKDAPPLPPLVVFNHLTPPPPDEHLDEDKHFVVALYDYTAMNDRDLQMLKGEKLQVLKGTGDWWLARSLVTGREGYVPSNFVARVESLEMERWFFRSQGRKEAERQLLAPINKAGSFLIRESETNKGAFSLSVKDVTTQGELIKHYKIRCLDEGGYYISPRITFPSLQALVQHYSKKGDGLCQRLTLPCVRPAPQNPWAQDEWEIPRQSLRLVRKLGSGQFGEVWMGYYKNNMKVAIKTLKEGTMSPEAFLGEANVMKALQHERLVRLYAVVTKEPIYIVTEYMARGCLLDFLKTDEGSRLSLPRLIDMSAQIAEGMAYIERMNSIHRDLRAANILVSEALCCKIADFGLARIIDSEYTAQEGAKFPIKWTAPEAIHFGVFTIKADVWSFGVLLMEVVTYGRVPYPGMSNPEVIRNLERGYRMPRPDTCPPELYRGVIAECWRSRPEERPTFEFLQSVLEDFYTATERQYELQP
UniProt P15056, whole entry, looked up: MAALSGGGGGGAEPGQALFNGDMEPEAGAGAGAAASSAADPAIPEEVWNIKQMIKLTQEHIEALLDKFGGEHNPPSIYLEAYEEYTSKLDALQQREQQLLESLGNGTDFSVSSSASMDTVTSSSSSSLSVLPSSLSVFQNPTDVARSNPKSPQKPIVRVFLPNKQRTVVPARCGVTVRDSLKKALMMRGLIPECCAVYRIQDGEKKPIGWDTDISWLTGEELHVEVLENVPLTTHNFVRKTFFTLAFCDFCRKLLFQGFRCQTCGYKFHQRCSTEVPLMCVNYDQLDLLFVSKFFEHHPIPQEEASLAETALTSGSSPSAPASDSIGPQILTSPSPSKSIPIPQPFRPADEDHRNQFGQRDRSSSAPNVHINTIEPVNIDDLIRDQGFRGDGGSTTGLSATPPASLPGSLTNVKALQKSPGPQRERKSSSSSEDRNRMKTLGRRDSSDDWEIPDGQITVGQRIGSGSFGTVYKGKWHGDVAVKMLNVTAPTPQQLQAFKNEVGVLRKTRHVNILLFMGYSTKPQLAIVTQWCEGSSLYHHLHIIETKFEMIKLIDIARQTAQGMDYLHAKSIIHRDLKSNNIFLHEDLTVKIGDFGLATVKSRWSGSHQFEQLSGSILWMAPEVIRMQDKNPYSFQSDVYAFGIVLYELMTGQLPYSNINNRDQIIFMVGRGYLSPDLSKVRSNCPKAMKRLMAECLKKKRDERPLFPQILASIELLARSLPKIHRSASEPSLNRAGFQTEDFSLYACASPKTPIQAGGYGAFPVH

Experiments:
Assay in all cases: kinase-Nluc reporter destabilization hit call (1 = scored as downregulated) (binary); higher = compound decreases kinase abundance
Conditions in all cases: K562; 2-18 h
ABL1 = ABL1 (UniProt P00519)
AKT1 = AKT1 (UniProt P31749)
ALK = ALK (UniProt Q9UM73)
ARAF = ARAF (UniProt P10398)
AURKA = AURKA (UniProt O14965)
AURKB = AURKB (UniProt Q96GD4)
AURKC = AURKC (UniProt Q9UQB9)
BLK = BLK (UniProt P51451)
BMX = BMX (UniProt P51813)
BRAF = BRAF (UniProt P15056)

With `Cc1cc2sc(NC(=O)Cc3ccccc3)nc2cc1Cl` (10 µM) the “kinase-Nluc reporter destabilization hit call” value (ABL1) was inactive: 0, the “kinase-Nluc reporter destabilization hit call” value (AKT1) was inactive: 0 and the “kinase-Nluc reporter destabilization hit call” value (ALK) was inactive: 0. The “kinase-Nluc reporter destabilization hit call” value (ARAF) was inactive: 0, the “kinase-Nluc reporter destabilization hit call” value (AURKA) was inactive: 0 and the “kinase-Nluc reporter destabilization hit call” value (AURKB) was inactive: 0. The “kinase-Nluc reporter destabilization hit call” value (AURKC) was inactive: 0, the “kinase-Nluc reporter destabilization hit call” value (BLK) was inactive: 0 and the “kinase-Nluc reporter destabilization hit call” value (BMX) was inactive: 0. For the same molecule, the “kinase-Nluc reporter destabilization hit call” value (BRAF) was inactive: 0.
`CCN(CC)c1ccc2cc(-c3nc4cc(C)ccc4o3)c(=O)oc2c1` (10 µM) was tested, and the “kinase-Nluc reporter destabilization hit call” value (ABL1) was inactive: 0, the “kinase-Nluc reporter destabilization hit call” value (AKT1) was inactive: 0 and the “kinase-Nluc reporter destabilization hit call” value (ALK) was inactive: 0. The “kinase-Nluc reporter destabilization hit call” value (ARAF) was inactive: 0, the “kinase-Nluc reporter destabilization hit call” value (AURKA) was inactive: 0 and the “kinase-Nluc reporter destabilization hit call” value (AURKB) was inactive: 0. The “kinase-Nluc reporter destabilization hit call” value (AURKC) was inactive: 0, the “kinase-Nluc reporter destabilization hit call” value (BLK) was inactive: 0 and the “kinase-Nluc reporter destabilization hit call” value (BMX) was inactive: 0. For the same molecule, the “kinase-Nluc reporter destabilization hit call” value (BRAF) was inactive: 0.
In the case of `O=[N+]([O-])c1ccc(Nc2nc(N3CCOCC3)nc(N3CCOCC3)n2)cc1` (10 µM), the “kinase-Nluc reporter destabilization hit call” value (ABL1) is reported as inactive: 0, the “kinase-Nluc reporter destabilization hit call” value (AKT1) is reported as inactive: 0 and the “kinase-Nluc reporter destabilization hit call” value (ALK) is reported as inactive: 0. The “kinase-Nluc reporter destabilization hit call” value (ARAF) was inactive: 0, the “kinase-Nluc reporter destabilization hit call” value (AURKA) was inactive: 0 and the “kinase-Nluc reporter destabilization hit call” value (AURKB) was inactive: 0. For the same molecule, the “kinase-Nluc reporter destabilization hit call” value (AURKC) was inactive: 0, the “kinase-Nluc reporter destabilization hit call” value (BLK) was inactive: 0 and the “kinase-Nluc reporter destabilization hit call” value (BMX) was inactive: 0. The “kinase-Nluc reporter destabilization hit call” value (BRAF) was inactive: 0.
`O=C1NC(=O)/C(=C/c2ccc3nccc(-c4ccncc4)c3c2)S1` (10 µM) was tested, and the “kinase-Nluc reporter destabilization hit call” value (ABL1) was active: 1, the “kinase-Nluc reporter destabilization hit call” value (AKT1) was inactive: 0 and the “kinase-Nluc reporter destabilization hit call” value (ALK) was inactive: 0. The “kinase-Nluc reporter destabilization hit call” value (ARAF) was inactive: 0, the “kinase-Nluc reporter destabilization hit call” value (AURKA) was inactive: 0 and the “kinase-Nluc reporter destabilization hit call” value (AURKB) was inactive: 0. The “kinase-Nluc reporter destabilization hit call” value (AURKC) was inactive: 0, the “kinase-Nluc reporter destabilization hit call” value (BLK) was inactive: 0 and the “kinase-Nluc reporter destabilization hit call” value (BMX) was inactive: 0. The “kinase-Nluc reporter destabilization hit call” value (BRAF) was inactive: 0.
`C=CCc1ccc(O)c(-c2ccc(O)c(CC=C)c2)c1` [Honokiol] (10 µM) was tested, and the “kinase-Nluc reporter destabilization hit call” value (ABL1) was inactive: 0, the “kinase-Nluc reporter destabilization hit call” value (AKT1) was inactive: 0 and the “kinase-Nluc reporter destabilization hit call” value (ALK) was inactive: 0. For the same molecule, the “kinase-Nluc reporter destabilization hit call” value (ARAF) was inactive: 0, the “kinase-Nluc reporter destabilization hit call” value (AURKA) was inactive: 0 and the “kinase-Nluc reporter destabilization hit call” value (AURKB) was inactive: 0. The “kinase-Nluc reporter destabilization hit call” value (AURKC) was inactive: 0, the “kinase-Nluc reporter destabilization hit call” value (BLK) was inactive: 0 and the “kinase-Nluc reporter destabilization hit call” value (BMX) was inactive: 0. For the same molecule, the “kinase-Nluc reporter destabilization hit call” value (BRAF) was inactive: 0.
For `Nc1cccc(-c2cc3c(Oc4cccc(O)c4)ncnc3[nH]2)c1` (10 µM), the “kinase-Nluc reporter destabilization hit call” value (ABL1) was inactive: 0, the “kinase-Nluc reporter destabilization hit call” value (AKT1) was inactive: 0 and the “kinase-Nluc reporter destabilization hit call” value (ALK) was inactive: 0. The “kinase-Nluc reporter destabilization hit call” value (ARAF) was inactive: 0, the “kinase-Nluc reporter destabilization hit call” value (AURKA) was inactive: 0 and the “kinase-Nluc reporter destabilization hit call” value (AURKB) was inactive: 0. The “kinase-Nluc reporter destabilization hit call” value (AURKC) was inactive: 0, the “kinase-Nluc reporter destabilization hit call” value (BLK) was inactive: 0 and the “kinase-Nluc reporter destabilization hit call” value (BMX) was inactive: 0. For the same molecule, the “kinase-Nluc reporter destabilization hit call” value (BRAF) was inactive: 0.
In the case of `Cc1cc(Nc2nc(CC3(C(=O)O)CCN(C(=O)c4cccc(Cl)c4Cl)CC3)ccc2F)n[nH]1` (10 µM), the “kinase-Nluc reporter destabilization hit call” value (ABL1) is reported as inactive: 0, the “kinase-Nluc reporter destabilization hit call” value (AKT1) is reported as inactive: 0 and the “kinase-Nluc reporter destabilization hit call” value (ALK) is reported as inactive: 0. For the same molecule, the “kinase-Nluc reporter destabilization hit call” value (ARAF) was inactive: 0, the “kinase-Nluc reporter destabilization hit call” value (AURKA) was inactive: 0 and the “kinase-Nluc reporter destabilization hit call” value (AURKB) was inactive: 0. The “kinase-Nluc reporter destabilization hit call” value (AURKC) was inactive: 0, the “kinase-Nluc reporter destabilization hit call” value (BLK) was inactive: 0 and the “kinase-Nluc reporter destabilization hit call” value (BMX) was inactive: 0. For the same molecule, the “kinase-Nluc reporter destabilization hit call” value (BRAF) was inactive: 0.
With `Nc1nccc(Oc2ccc(NC(=O)c3c[nH]cc(-c4ccc(F)cc4)c3=O)cc2F)c1Cl` (10 µM) the “kinase-Nluc reporter destabilization hit call” value (ABL1) was inactive: 0, the “kinase-Nluc reporter destabilization hit call” value (AKT1) was inactive: 0 and the “kinase-Nluc reporter destabilization hit call” value (ALK) was inactive: 0. The “kinase-Nluc reporter destabilization hit call” value (ARAF) was inactive: 0, the “kinase-Nluc reporter destabilization hit call” value (AURKA) was inactive: 0 and the “kinase-Nluc reporter destabilization hit call” value (AURKB) was inactive: 0. The “kinase-Nluc reporter destabilization hit call” value (AURKC) was inactive: 0, the “kinase-Nluc reporter destabilization hit call” value (BLK) was inactive: 0 and the “kinase-Nluc reporter destabilization hit call” value (BMX) was inactive: 0. The “kinase-Nluc reporter destabilization hit call” value (BRAF) was inactive: 0.
`CN(c1ccc(NC(=O)Nc2ccc(OC(F)(F)F)cc2)cc1)c1ccnc(Nc2cccc(S(N)(=O)=O)c2)n1` (2.5 µM) was tested, and the “kinase-Nluc reporter destabilization hit call” value (ABL1) was inactive: 0, the “kinase-Nluc reporter destabilization hit call” value (AKT1) was inactive: 0 and the “kinase-Nluc reporter destabilization hit call” value (ALK) was inactive: 0. For the same molecule, the “kinase-Nluc reporter destabilization hit call” value (ARAF) was inactive: 0, the “kinase-Nluc reporter destabilization hit call” value (AURKA) was inactive: 0 and the “kinase-Nluc reporter destabilization hit call” value (AURKB) was inactive: 0. The “kinase-Nluc reporter destabilization hit call” value (AURKC) was inactive: 0, the “kinase-Nluc reporter destabilization hit call” value (BLK) was inactive: 0 and the “kinase-Nluc reporter destabilization hit call” value (BMX) was inactive: 0. The “kinase-Nluc reporter destabilization hit call” value (BRAF) was inactive: 0.
With `CC(C)(O)[C@H]1CC[C@H](Nc2ccc3ncc(-c4cccc(C(F)(F)F)c4)n3n2)CC1` (10 µM) the “kinase-Nluc reporter destabilization hit call” value (ABL1) was inactive: 0, the “kinase-Nluc reporter destabilization hit call” value (AKT1) was inactive: 0 and the “kinase-Nluc reporter destabilization hit call” value (ALK) was inactive: 0. For the same molecule, the “kinase-Nluc reporter destabilization hit call” value (ARAF) was inactive: 0, the “kinase-Nluc reporter destabilization hit call” value (AURKA) was inactive: 0 and the “kinase-Nluc reporter destabilization hit call” value (AURKB) was inactive: 0. The “kinase-Nluc reporter destabilization hit call” value (AURKC) was inactive: 0, the “kinase-Nluc reporter destabilization hit call” value (BLK) was inactive: 0 and the “kinase-Nluc reporter destabilization hit call” value (BMX) was inactive: 0. For the same molecule, the “kinase-Nluc reporter destabilization hit call” value (BRAF) was inactive: 0.
`CNc1nc(Nc2cn(C(C)(C)C#N)nc2C)ncc1C(F)(F)F` (10 µM) was tested, and the “kinase-Nluc reporter destabilization hit call” value (ABL1) was inactive: 0, the “kinase-Nluc reporter destabilization hit call” value (AKT1) was inactive: 0 and the “kinase-Nluc reporter destabilization hit call” value (ALK) was inactive: 0. The “kinase-Nluc reporter destabilization hit call” value (ARAF) was inactive: 0, the “kinase-Nluc reporter destabilization hit call” value (AURKA) was inactive: 0 and the “kinase-Nluc reporter destabilization hit call” value (AURKB) was inactive: 0. The “kinase-Nluc reporter destabilization hit call” value (AURKC) was inactive: 0, the “kinase-Nluc reporter destabilization hit call” value (BLK) was inactive: 0 and the “kinase-Nluc reporter destabilization hit call” value (BMX) was inactive: 0. The “kinase-Nluc reporter destabilization hit call” value (BRAF) was inactive: 0.
`O=[N+]([O-])c1ccc2c(c1)S(=O)(=O)C=C2` [Stattic] (2.5 µM) was tested, and the “kinase-Nluc reporter destabilization hit call” value (ABL1) was inactive: 0, the “kinase-Nluc reporter destabilization hit call” value (AKT1) was inactive: 0 and the “kinase-Nluc reporter destabilization hit call” value (ALK) was inactive: 0. For the same molecule, the “kinase-Nluc reporter destabilization hit call” value (ARAF) was inactive: 0, the “kinase-Nluc reporter destabilization hit call” value (AURKA) was inactive: 0 and the “kinase-Nluc reporter destabilization hit call” value (AURKB) was inactive: 0. For the same molecule, the “kinase-Nluc reporter destabilization hit call” value (AURKC) was inactive: 0, the “kinase-Nluc reporter destabilization hit call” value (BLK) was inactive: 0 and the “kinase-Nluc reporter destabilization hit call” value (BMX) was inactive: 0. The “kinase-Nluc reporter destabilization hit call” value (BRAF) was inactive: 0.
With `C=C[C@@](C)(/C=C/c1ccc(O)cc1)CCC=C(C)C` [Bakuchiol] (10 µM) the “kinase-Nluc reporter destabilization hit call” value (ABL1) was inactive: 0, the “kinase-Nluc reporter destabilization hit call” value (AKT1) was inactive: 0 and the “kinase-Nluc reporter destabilization hit call” value (ALK) was inactive: 0. For the same molecule, the “kinase-Nluc reporter destabilization hit call” value (ARAF) was inactive: 0, the “kinase-Nluc reporter destabilization hit call” value (AURKA) was inactive: 0 and the “kinase-Nluc reporter destabilization hit call” value (AURKB) was inactive: 0. The “kinase-Nluc reporter destabilization hit call” value (AURKC) was inactive: 0, the “kinase-Nluc reporter destabilization hit call” value (BLK) was inactive: 0 and the “kinase-Nluc reporter destabilization hit call” value (BMX) was inactive: 0. The “kinase-Nluc reporter destabilization hit call” value (BRAF) was inactive: 0.
`O=C1NC(=O)C(c2cnc3ccccn23)=C1c1cn2c3c(cc(F)cc13)CNCC2` [GSK-3 inhibitor 1] (2.5 µM) was tested, and the “kinase-Nluc reporter destabilization hit call” value (ABL1) was inactive: 0, the “kinase-Nluc reporter destabilization hit call” value (AKT1) was inactive: 0 and the “kinase-Nluc reporter destabilization hit call” value (ALK) was inactive: 0. For the same molecule, the “kinase-Nluc reporter destabilization hit call” value (ARAF) was inactive: 0, the “kinase-Nluc reporter destabilization hit call” value (AURKA) was inactive: 0 and the “kinase-Nluc reporter destabilization hit call” value (AURKB) was inactive: 0. The “kinase-Nluc reporter destabilization hit call” value (AURKC) was inactive: 0, the “kinase-Nluc reporter destabilization hit call” value (BLK) was inactive: 0 and the “kinase-Nluc reporter destabilization hit call” value (BMX) was inactive: 0. The “kinase-Nluc reporter destabilization hit call” value (BRAF) was inactive: 0.
For `CCCCCCCC/C=C\CCCCCCCCCCCC(=O)O` [Erucic acid] (10 µM), the “kinase-Nluc reporter destabilization hit call” value (ABL1) was inactive: 0, the “kinase-Nluc reporter destabilization hit call” value (AKT1) was inactive: 0 and the “kinase-Nluc reporter destabilization hit call” value (ALK) was inactive: 0. For the same molecule, the “kinase-Nluc reporter destabilization hit call” value (ARAF) was inactive: 0, the “kinase-Nluc reporter destabilization hit call” value (AURKA) was inactive: 0 and the “kinase-Nluc reporter destabilization hit call” value (AURKB) was inactive: 0. For the same molecule, the “kinase-Nluc reporter destabilization hit call” value (AURKC) was inactive: 0, the “kinase-Nluc reporter destabilization hit call” value (BLK) was inactive: 0 and the “kinase-Nluc reporter destabilization hit call” value (BMX) was inactive: 0. The “kinase-Nluc reporter destabilization hit call” value (BRAF) was inactive: 0.
